Measured data: PubChem BioAssay AID504784 (Drosophila RNAi Screening Center, 2011)

Purpose: 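Fly genes whose silencing alters how much lipid cells keep in droplets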 (primary screen)
Cells: Drosophila Kc167 embryonic cells
Reagents: long dsRNA against Drosophila genes, about 250 ng dsRNA per well
Timing: 4 days
Challenge: cells fed 400 µM oleic acid bound to BSA
Measurement: 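Cells imaged and segmented; ratio of lipid droplet area to nuclear area, log-transformed, then normalised as a B-score over the screen; higher means more stored lipid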
Reading the numbers: droplet/nuclear area B-score: higher = more stored lipid (overstorage)
The screen tested about 17,000 reagents; this is a random part of those that have a named target and a result. 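Each column is one replicate's B-score; the combined score over replicates was not deposited, so single values may mislead.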 A plus sign joins genes that one reagent is predicted to hit.

Tengl4 [DRSC15620] gave droplet/nuclear area B-score, replicate 1 = 0.2; droplet/nuclear area B-score, replicate 2 = 1.37.
CG33169 [DRSC11853] scored droplet/nuclear area B-score, replicate 1 = -0.636; droplet/nuclear area B-score, replicate 2 = 0.604.
CG12112 [DRSC17809] gave droplet/nuclear area B-score, replicate 1 = -0.914; droplet/nuclear area B-score, replicate 2 = -0.0417; droplet/nuclear area B-score, replicate 3 = 0.483.
With knock-down of CG46385 [DRSC06425], the record shows droplet/nuclear area B-score, replicate 1 = 3.69; droplet/nuclear area B-score, replicate 2 = -0.744.
For CG46385 [DRSC06557] the deposit lists droplet/nuclear area B-score, replicate 1 = 2.17; droplet/nuclear area B-score, replicate 2 = -0.619.
For okr [DRSC00834] the deposit lists droplet/nuclear area B-score, replicate 1 = -0.151; droplet/nuclear area B-score, replicate 2 = -0.0728.
Against RSG7 [DRSC20274], the values are droplet/nuclear area B-score, replicate 1 = 0.239; droplet/nuclear area B-score, replicate 2 = 0.36.
For RSG7 [DRSC22852], the values are droplet/nuclear area B-score, replicate 1 = -1.06; droplet/nuclear area B-score, replicate 2 = -0.0146.
For CG13068 [DRSC09951], the entry reads droplet/nuclear area B-score, replicate 1 = -0.552; droplet/nuclear area B-score, replicate 2 = 0.318.
Knock-down of Obp83g [DRSC12269] resulted in: droplet/nuclear area B-score, replicate 1 = 0.0959; droplet/nuclear area B-score, replicate 2 = -0.269.
CG13215 [DRSC06337] scored droplet/nuclear area B-score, replicate 1 = -0.0171; droplet/nuclear area B-score, replicate 2 = 0.0314.
Depletion of CG33110 [DRSC14694] came out at: droplet/nuclear area B-score, replicate 1 = -1.01; droplet/nuclear area B-score, replicate 2 = -0.0263.
Depletion of CG33110 [DRSC16137] resulted in: droplet/nuclear area B-score, replicate 1 = 1.11; droplet/nuclear area B-score, replicate 2 = -3.62.
CG15578 [DRSC18066] showed droplet/nuclear area B-score, replicate 1 = -0.251; droplet/nuclear area B-score, replicate 2 = -0.932.
Against Pex7 [DRSC10651], the entry reads droplet/nuclear area B-score, replicate 1 = -0.794; droplet/nuclear area B-score, replicate 2 = -1.58.
CG3348 [DRSC15480] gave droplet/nuclear area B-score, replicate 1 = 1.49; droplet/nuclear area B-score, replicate 2 = -0.172.
CG14445 [DRSC17938] showed droplet/nuclear area B-score, replicate 1 = -1.23; droplet/nuclear area B-score, replicate 2 = -1.06.
With knock-down of CG18568 [DRSC06768], the record shows droplet/nuclear area B-score, replicate 1 = -0.878; droplet/nuclear area B-score, replicate 2 = 0.00512.
Knock-down of CG7997 [DRSC07052] resulted in: droplet/nuclear area B-score, replicate 1 = 2.09; droplet/nuclear area B-score, replicate 2 = -0.275.
AlaRS-m [DRSC09660] showed droplet/nuclear area B-score, replicate 1 = -0.157; droplet/nuclear area B-score, replicate 2 = -1.44.
After knock-down of Obp50d [DRSC05483], the record shows droplet/nuclear area B-score, replicate 1 = -1.38; droplet/nuclear area B-score, replicate 2 = 0.0116.
Against CG12486 (retired record) [DRSC09888], the values are droplet/nuclear area B-score, replicate 1 = -0.211; droplet/nuclear area B-score, replicate 2 = 0.802.
Against CG31861 [DRSC21665], the entry reads droplet/nuclear area B-score, replicate 1 = -0.45; droplet/nuclear area B-score, replicate 2 = -1.1.
For ave [DRSC05502] the deposit lists droplet/nuclear area B-score, replicate 1 = 1.96; droplet/nuclear area B-score, replicate 2 = 2.34.
CG12133 [DRSC06108] gave droplet/nuclear area B-score, replicate 1 = 0.731; droplet/nuclear area B-score, replicate 2 = 0.0421.
With knock-down of Elba3 [DRSC00469], the screen gave droplet/nuclear area B-score, replicate 1 = -0.807; droplet/nuclear area B-score, replicate 2 = -0.674.
Depletion of Scp1 [DRSC20799] gave: droplet/nuclear area B-score, replicate 1 = 0.816; droplet/nuclear area B-score, replicate 2 = -0.125.
After knock-down of Scp1 [DRSC20803] the results were droplet/nuclear area B-score, replicate 1 = 0.353; droplet/nuclear area B-score, replicate 2 = -1.46.
Scp1 [DRSC20806] showed droplet/nuclear area B-score, replicate 1 = -1.93; droplet/nuclear area B-score, replicate 2 = -1.96.
For RpL23 [DRSC04648], the entry reads droplet/nuclear area B-score, replicate 1 = 5.58; droplet/nuclear area B-score, replicate 2 = 4.93.
After knock-down of CG14072 [DRSC02375] the results were droplet/nuclear area B-score, replicate 1 = 2.6; droplet/nuclear area B-score, replicate 2 = 0.765.
Silencing of Regnase-1 [DRSC14278] gave: droplet/nuclear area B-score, replicate 1 = -0.396; droplet/nuclear area B-score, replicate 2 = 0.436.
After knock-down of CG31431 [DRSC14589], the screen gave droplet/nuclear area B-score, replicate 1 = 0.914; droplet/nuclear area B-score, replicate 2 = 0.881.
CG31279 [DRSC13158] scored droplet/nuclear area B-score, replicate 1 = -1.09; droplet/nuclear area B-score, replicate 2 = 0.433.
CG5768 [DRSC15870] gave droplet/nuclear area B-score, replicate 1 = -0.429; droplet/nuclear area B-score, replicate 2 = -0.0116.
bor [DRSC16915] gave droplet/nuclear area B-score, replicate 1 = -2.93; droplet/nuclear area B-score, replicate 2 = -0.685.
With knock-down of CG5098 [DRSC06915], the record shows droplet/nuclear area B-score, replicate 1 = 1.84; droplet/nuclear area B-score, replicate 2 = -1.02.
Knock-down of cnk [DRSC07595] came out at: droplet/nuclear area B-score, replicate 1 = -1.55; droplet/nuclear area B-score, replicate 2 = -0.0109.
For ETH [DRSC04612] the deposit lists droplet/nuclear area B-score, replicate 1 = -0.0419; droplet/nuclear area B-score, replicate 2 = 0.0931.
With knock-down of fwd [DRSC08580], the screen gave droplet/nuclear area B-score, replicate 1 = 0.791; droplet/nuclear area B-score, replicate 2 = 2.75.
Knock-down of Art9 [DRSC16584] came out at: droplet/nuclear area B-score, replicate 1 = 1.74; droplet/nuclear area B-score, replicate 2 = -0.0989.
Depletion of Idgf4 [DRSC18675] gave: droplet/nuclear area B-score, replicate 1 = -0.0838; droplet/nuclear area B-score, replicate 2 = 0.0472; droplet/nuclear area B-score, replicate 3 = -0.643.
Depletion of hoka [DRSC08313] came out at: droplet/nuclear area B-score, replicate 1 = -2.05; droplet/nuclear area B-score, replicate 2 = -1.13.
Against wrd [DRSC16337], the values are droplet/nuclear area B-score, replicate 1 = 0.73.
After knock-down of wrd [DRSC16344] the results were droplet/nuclear area B-score, replicate 1 = -2.12; droplet/nuclear area B-score, replicate 2 = -2.87.
Against wrd [DRSC23189], the values are droplet/nuclear area B-score, replicate 1 = 0.546; droplet/nuclear area B-score, replicate 2 = -0.96.
Lcp65Aa [DRSC11209] scored droplet/nuclear area B-score, replicate 2 = -0.094.
For CG34234 + Dh44-R2 [DRSC07278], the values are droplet/nuclear area B-score, replicate 1 = -0.208; droplet/nuclear area B-score, replicate 2 = -0.452.
Snx6 [DRSC03081] showed droplet/nuclear area B-score, replicate 1 = -2.35; droplet/nuclear area B-score, replicate 2 = 1.28.
CG3448 [DRSC10368] showed droplet/nuclear area B-score, replicate 1 = 0.5; droplet/nuclear area B-score, replicate 2 = 1.02.
With knock-down of ash1 [DRSC11325], the screen gave droplet/nuclear area B-score, replicate 1 = 0.00166; droplet/nuclear area B-score, replicate 2 = -2.15; droplet/nuclear area B-score, replicate 3 = -0.0195.

Sorted by “droplet/nuclear area B-score, replicate 2” (descending): 9 of the entries above.
RpL23 [DRSC04648] — droplet/nuclear area B-score, replicate 1: 5.58; droplet/nuclear area B-score, replicate 2: 4.93
CG31431 [DRSC14589] — droplet/nuclear area B-score, replicate 1: 0.914; droplet/nuclear area B-score, replicate 2: 0.881
CG14072 [DRSC02375] — droplet/nuclear area B-score, replicate 1: 2.6; droplet/nuclear area B-score, replicate 2: 0.765
Regnase-1 [DRSC14278] — droplet/nuclear area B-score, replicate 1: -0.396; droplet/nuclear area B-score, replicate 2: 0.436
CG31279 [DRSC13158] — droplet/nuclear area B-score, replicate 1: -1.09; droplet/nuclear area B-score, replicate 2: 0.433
CG5768 [DRSC15870] — droplet/nuclear area B-score, replicate 1: -0.429; droplet/nuclear area B-score, replicate 2: -0.0116
bor [DRSC16915] — droplet/nuclear area B-score, replicate 1: -2.93; droplet/nuclear area B-score, replicate 2: -0.685
Scp1 [DRSC20803] — droplet/nuclear area B-score, replicate 1: 0.353; droplet/nuclear area B-score, replicate 2: -1.46
Scp1 [DRSC20806] — droplet/nuclear area B-score, replicate 1: -1.93; droplet/nuclear area B-score, replicate 2: -1.96
